## Primary screen of a compound library

Sequences of proteins named here, by UniProt entry; tags and fusion partners are left off.
UniProt P9WNZ1, whole entry: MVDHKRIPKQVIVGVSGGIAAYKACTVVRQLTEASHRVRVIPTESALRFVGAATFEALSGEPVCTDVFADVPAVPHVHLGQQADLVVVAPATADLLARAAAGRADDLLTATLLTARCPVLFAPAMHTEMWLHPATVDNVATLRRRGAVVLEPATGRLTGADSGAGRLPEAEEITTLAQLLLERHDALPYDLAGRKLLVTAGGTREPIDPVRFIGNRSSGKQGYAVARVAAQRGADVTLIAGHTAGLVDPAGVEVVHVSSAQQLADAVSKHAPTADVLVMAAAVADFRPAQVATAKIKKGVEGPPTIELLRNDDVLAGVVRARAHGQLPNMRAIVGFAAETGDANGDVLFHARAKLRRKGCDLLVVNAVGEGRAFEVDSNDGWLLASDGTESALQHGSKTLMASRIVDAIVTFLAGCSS

The values are deposited in ChEMBL (CHEMBL3988442, “University of Dundee, Small-Polar-MMV Screening Library” (2021)).

Toxoplasma: 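Assay of Toxoplasma gondii numbers, read through their beta-galactosidase reporter with a colour substrate. Compounds at 10 µM. Higher reads as fewer parasites (inferred from which compounds were picked for retests). Size under these conditions: about 67,000 compounds, about 260 of them at 50% or above in at least one test.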
CoaBC: 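Enzyme assay of CoaBC with a phosphate dye (Biomol Green) read at 650 nm. Target: Coenzyme A biosynthesis protein CoaBC, Mycobacterium tuberculosis (UniProt P9WNZ1). Concentration: 30 µM. Direction is inferred from only a few compounds that gave an IC50; most scored high, so higher reads as stronger inhibition. Most strong results did not repeat in a second test. Of about 67,000 compounds tested this way, about 40 (0.06%) reached 50% or more in at least one test.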

Values are the deposited “Percent Effect”, in %. How 0% and 100% were set is not recorded. Most values in the screen are low, and negative values occur. This is an unselected part of the compounds tested.

COCC(C)NCc1nc(-c2ccc(C)cc2)c(-c2ccccn2)[nH]1 (centres undefined) gave Toxoplasma: -30%; CoaBC: 8.571%.
[H][C@@]12CCN(Cc3nc(C)cs3)C[C@@]1([H])O[C@@H](c1ccncn1)C2 gave Toxoplasma: -4.958%.
Cc1cc(-n2nc(C3CC3)nc2-c2csnn2)ccn1 gave Toxoplasma: -0.4284%; CoaBC: 15.18%.
CCNC(=O)CCCC(=O)N1CCc2cc(Cl)cc(Cl)c2C1 gave Toxoplasma: 17.71%; CoaBC: 1.015%.
Cc1nn(C)c2sc(C(=O)N3CCCC(n4ccnc4C)C3)cc12 (centres undefined) gave Toxoplasma: -1.458%; CoaBC: 5.533%.
CN1CCN(CC2(O)CCCN(C(=O)Cc3cccc(O)c3)CC2)CC1 (centres undefined) gave Toxoplasma: -20.28%; CoaBC: 5.128%.
Cn1nnc(NCc2ccc(OCc3ccc(Cl)cc3)cc2)n1 gave Toxoplasma: -4.648%; CoaBC: -1.713%.
CCc1ncc(CN(CCc2ccccc2)Cc2cccs2)cn1 gave CoaBC: 0.9569%.
Cc1nc(CN2CCN(C(=O)COCc3ccccc3)CC2)no1 gave Toxoplasma: 0.5848%; CoaBC: 14.98%.
CN(C)CC(O)Cn1cc(NCc2ccc(Br)cc2)cn1 (centres undefined) gave Toxoplasma: -3.65%; CoaBC: -4.531%.
O=c1[nH]nc2nc(N3CCCC3)ccn12 gave Toxoplasma: -3.736%; CoaBC: 5.646%.
CCN(CC)C(=O)C1CCC2(CCNCC2)CO1 (centres undefined) gave CoaBC: 4.589%.
Cc1cc(C)nc(N2Cc3cnn(Cc4ccc(F)cc4)c3C2)n1 gave Toxoplasma: -4.736%; CoaBC: -4.911%.
O=C(c1cnc(-c2noc3cc(N4CCCC4)ccc23)s1)N1CCCC1 gave Toxoplasma: 2.074%.
Cn1ncc2c1NC(=O)CC2c1ccc(Cl)cc1Cl (centres undefined) gave Toxoplasma: 0.05028%; CoaBC: 2.024%.
O=C1CC[C@H](C(=O)Nc2cnn(-c3ccccc3Br)c2)N1 gave Toxoplasma: 12.83%; CoaBC: 3.435%.
Cc1ccccc1C(=O)NC[C@@H]1CCN(C(=O)C2(O)CCCC2)C[C@H]1O gave Toxoplasma: -41.09%; CoaBC: 7.056%.
CN(C)c1nc2c(c(N3CCC(O)CC3)n1)CN(CC1CCOC1)CC2 (centres undefined) gave Toxoplasma: -3.884%; CoaBC: -12.45%.
Cn1cncc1CN1CCC2(CC1)CCN2c1ncccn1 gave Toxoplasma: -6.097%; CoaBC: -21.25%.
O=C1NC2(CCN(CC(=O)N3CCOCC3)CC2)Nc2ccccc21 gave Toxoplasma: 6.004%; CoaBC: 3.417%.
COCCc1noc(C2CCCN(c3nc(N)nc4c3CCCC4)C2)n1 (centres undefined) gave Toxoplasma: 19.05%; CoaBC: -1.654%.
CCNc1ncc(C(=O)N2CCOC(CCCc3ccccc3)C2)cn1 (centres undefined) gave Toxoplasma: -4.453%; CoaBC: 7.158%.
CC(NC1CCCC1)c1ccccc1-n1cccn1 (centres undefined) gave Toxoplasma: 37.78%; CoaBC: 0.6361%.

The last 2 entries again:

| structure | Toxoplasma | CoaBC |
|---|---|---|
| `CCNc1ncc(C(=O)N2CCOC(CCCc3ccccc3)C2)cn1` (centres undefined) | -4.453% | 7.158% |
| `CC(NC1CCCC1)c1ccccc1-n1cccn1` (centres undefined) | 37.78% | 0.6361% |